Results: PMC9956033
These are yes or no findings as the source states them, for the method shown. Binding seen in cells or lysates may run through a third protein. A yes stands for co-enrichment or nearness to the bait. Other partners may have been found. Sequences can lack the tags named with a protein.

Target: T1, GFP-tagged ThrRS (THS1, YIL078W), yeast cytosolic threonine tRNA synthetase (S. cerevisiae) (UniProt P04801)
T1 sequence: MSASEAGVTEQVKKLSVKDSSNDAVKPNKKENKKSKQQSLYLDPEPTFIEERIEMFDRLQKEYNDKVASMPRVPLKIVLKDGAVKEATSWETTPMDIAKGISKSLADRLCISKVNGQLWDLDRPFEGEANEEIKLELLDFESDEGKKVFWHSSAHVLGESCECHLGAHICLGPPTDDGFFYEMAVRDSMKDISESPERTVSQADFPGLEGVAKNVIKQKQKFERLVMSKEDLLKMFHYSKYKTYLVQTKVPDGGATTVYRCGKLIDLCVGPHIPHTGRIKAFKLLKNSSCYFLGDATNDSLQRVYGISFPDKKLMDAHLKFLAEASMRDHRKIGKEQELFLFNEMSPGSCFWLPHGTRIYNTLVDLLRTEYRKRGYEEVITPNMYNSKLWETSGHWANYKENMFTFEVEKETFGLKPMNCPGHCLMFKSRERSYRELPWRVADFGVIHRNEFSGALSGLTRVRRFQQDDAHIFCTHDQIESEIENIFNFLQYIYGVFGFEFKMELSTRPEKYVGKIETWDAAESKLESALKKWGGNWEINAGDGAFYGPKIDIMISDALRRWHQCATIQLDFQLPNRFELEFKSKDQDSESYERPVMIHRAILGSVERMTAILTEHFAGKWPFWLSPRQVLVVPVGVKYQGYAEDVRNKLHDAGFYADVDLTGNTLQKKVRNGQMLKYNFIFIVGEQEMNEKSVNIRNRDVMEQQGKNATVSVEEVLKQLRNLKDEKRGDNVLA
Assay: affinity purification with mass spectrometry; ThrRS-GFP strain and untagged control cross-linked with 1% formaldehyde for 10 min; lysate on GFP-Trap_MB, 4 °C, 2 h; washes with 0.5 M NaCl, 0.5% NP40; elution with 0.2 M glycine pH 2.5; LC-MS/MS, label-free quantitation against the untagged control, two biological repeats

B1: ACB1 (protein, UniProt P31787 1-87)
chain: MVSQLFEEKAKAVNELPTKPSTDELLELYALYKQATVGDNDKEKPGIFNMKDRYKWEAWENLKGKSQEDAEKEYIALVDQLIAKYSS
In the case of B1, the binding is reported as “binds”.

B2: CYS3, an enzyme involved in cysteine biosynthesis (enzyme, UniProt P31373 1-394)
chain: MTLQESDKFATKAIHAGEHVDVHGSVIEPISLSTTFKQSSPANPIGTYEYSRSQNPNRENLERAVAALENAQYGLAFSSGSATTATILQSLPQGSHAVSIGDVYGGTHRYFTKVANAHGVETSFTNDLLNDLPQLIKENTKLVWIETPTNPTLKVTDIQKVADLIKKHAAGQDVILVVDNTFLSPYISNPLNFGADIVVHSATKYINGHSDVVLGVLATNNKPLYERLQFLQNAIGAIPSPFDAWLTHRGLKTLHLRVRQAALSANKIAEFLAADKENVVAVNYPGLKTHPNYDVVLKQHRDALGGGMISFRIKGGAEAASKFASSTRLFTLAESLGGIESLLEVPAVMTHGGIPKEAREASGVFDDLVRISVGIEDTDDLLEDIKQALKQATN
B2 was tested, and the binding was “binds”.
